Test results published in patent US20080311122A1, “Antagonists of Hmgb1 and/or Rage and Methods of Use Thereof” (Medimmune, LLC, priority 2005, published 2008).
Results are given in words; binding and its absence hold for the method and conditions named. Some results given as binding are weak or reduced against the parent protein; the word gives no strength.

By UniProt entry, the sequences of proteins in these tests, tags left out. Residues count along the entry.
UniProt Q62151, residues 24-342: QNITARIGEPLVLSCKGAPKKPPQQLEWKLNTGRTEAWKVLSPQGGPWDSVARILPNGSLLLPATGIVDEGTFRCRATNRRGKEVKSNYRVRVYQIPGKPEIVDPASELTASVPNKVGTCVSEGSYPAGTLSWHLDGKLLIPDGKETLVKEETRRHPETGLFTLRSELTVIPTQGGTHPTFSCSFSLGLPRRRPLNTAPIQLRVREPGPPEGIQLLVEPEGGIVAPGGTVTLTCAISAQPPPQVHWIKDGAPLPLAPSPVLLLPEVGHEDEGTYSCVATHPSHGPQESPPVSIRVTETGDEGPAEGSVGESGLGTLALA
UniProt P63159: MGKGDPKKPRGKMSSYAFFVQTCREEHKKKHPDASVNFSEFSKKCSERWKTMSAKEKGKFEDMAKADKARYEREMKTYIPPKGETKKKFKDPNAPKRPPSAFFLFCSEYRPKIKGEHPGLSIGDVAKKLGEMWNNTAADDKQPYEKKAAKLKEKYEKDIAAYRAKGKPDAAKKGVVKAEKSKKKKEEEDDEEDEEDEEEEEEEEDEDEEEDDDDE
UniProt P10103, residues 2-215: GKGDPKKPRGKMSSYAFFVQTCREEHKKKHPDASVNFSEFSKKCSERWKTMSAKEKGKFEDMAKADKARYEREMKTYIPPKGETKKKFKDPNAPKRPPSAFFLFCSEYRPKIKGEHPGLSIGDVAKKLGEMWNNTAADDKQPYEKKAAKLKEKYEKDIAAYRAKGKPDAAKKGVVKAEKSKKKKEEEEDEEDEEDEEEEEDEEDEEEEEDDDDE
UniProt Q15109, residues 23-344: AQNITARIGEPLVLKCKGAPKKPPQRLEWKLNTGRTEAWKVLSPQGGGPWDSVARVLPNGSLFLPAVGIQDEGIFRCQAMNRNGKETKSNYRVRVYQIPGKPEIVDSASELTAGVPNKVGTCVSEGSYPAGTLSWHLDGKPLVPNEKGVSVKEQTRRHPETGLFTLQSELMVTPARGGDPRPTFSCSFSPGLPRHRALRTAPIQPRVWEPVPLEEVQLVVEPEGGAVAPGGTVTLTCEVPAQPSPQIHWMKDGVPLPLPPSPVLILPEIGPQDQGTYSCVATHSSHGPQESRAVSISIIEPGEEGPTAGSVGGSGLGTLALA

What was measured:
Mouse RAGE/Fc (mouse) [1] = molecular target: Mouse RAGE/Fc (mouse) (UniProt Q62151); assay: ELISA
Mouse RAGE/Fc (mouse) [2] = molecular target: Mouse RAGE/Fc (mouse) (UniProt Q62151); assay: ELISA on RAGE-Fc
[3] = molecular target: recombinant rat HMGB-1, Europium-labeled (rat) (UniProt P63159); assay: inhibition of binding of Eu-labeled HMGB-1 to THP-1 cells
[4] = molecular target: recombinant rat HMGB-1, Europium-labeled (rat) (UniProt P63159); assay: inhibition of the binding of 2 nM Europium-labeled rat HMGB-1 to THP-1 cells, fluorescence at 615 nm
Mouse RAGE/Fc (mouse) [5] = molecular target: Mouse RAGE/Fc (mouse) (UniProt Q62151); assay: ELISA on coated RAGE/Fc
Mouse RAGE/Fc (mouse) [6] = molecular target: Mouse RAGE/Fc (mouse) (UniProt Q62151); assay: ELISA, coated RAGE/Fc, biotin labeled CpG-A detected
Mouse RAGE/Fc (mouse) [7] = molecular target: Mouse RAGE/Fc (mouse) (UniProt Q62151); assay: ELISA, HMGB1 titrated on RAGE-Fc in the presence of 0.3 µM CpG-A (right panel)
Mouse RAGE/Fc (mouse) [8] = molecular target: Mouse RAGE/Fc (mouse) (UniProt Q62151); assay: ELISA, HMGB1 titrated on RAGE-Fc in the presence of 0.03 µM CpG-A (right panel)
Mouse RAGE/Fc (mouse) [9] = molecular target: Mouse RAGE/Fc (mouse) (UniProt Q62151); assay: ELISA, HMGB1 titrated on RAGE-Fc in the presence of 0.003 µM CpG-A (right panel)
Mouse RAGE/Fc (mouse) [10] = molecular target: Mouse RAGE/Fc (mouse) (UniProt Q62151); assay: ELISA, RAGE/Fc coated on the plate, biotin labeled CpG-A in complex with HMGB1, detected with HRP streptavidin (left panel)

Measured: binding

HMG1 purified from bovine (calf) thymus (from UniProt P10103 2-215)
binds: Mouse RAGE/Fc (mouse) [1] | Mouse RAGE/Fc (mouse) [2]

soluble human RAGE-Fc (from UniProt Q15109 23-344) (Fc fusion)
binds: [3] | [4]

HMGB1/CpG-A complex (from UniProt P10103 2-215)
not listed: Mouse RAGE/Fc (mouse) [2] | [3] | [4]
binds: all other assays above
